Data as given in PubChem BioAssay AID1259254 (NCATS, 2017).

Assay: 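Finding genes that stop cells copying their DNA twice in one cycle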 (primary screen)
Cells: human HCT116 colorectal cancer cells
Knock-down reagent: single siRNA against human genes
Duration: 3 days
Measurement: 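Nuclei stained with Hoechst and imaged; cell-cycle phase assigned by DNA content; G2 share scaled per plate, non-targeting siRNA 0%, GMNN siRNA 100%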
Reading the numbers: G2 robust z-score: higher = more G2 cells, more excess DNA replication
Rule for the call: 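Active siRNAs have a G2 robust z of 5 or more median absolute deviations over the median, which in these data means about 38% or higher of GMNN control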
Here is an unselected part of about 59,000 reagents tested. About 1,550 of all reagents (2.6%) count as active. 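G2 share is only a proxy for re-replication; each gene was hit by three separate siRNAs, and active genes were retested.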 The numbers tell different reagents against one gene apart. Not all columns of the deposit are shown. Reagent sequences are not shown. Not given: the amount of reagent.

After knock-down of BCL2L14 (BCL2 like 14) #1, the screen gave G2 robust z-score -0.718; inactive.
BCL2L14 (BCL2 like 14) #2 showed G2 robust z-score 0.33; inactive.
BCL2L14 (BCL2 like 14) #3 scored G2 robust z-score -0.17; inactive.
With knock-down of ZNF180 (zinc finger protein 180) #1, the record shows G2 robust z-score -0.97; inactive.
After knock-down of ZNF180 (zinc finger protein 180) #2, the screen gave G2 robust z-score -1.47; inactive.
For ZNF180 (zinc finger protein 180) #3 the deposit lists G2 robust z-score -0.628; inactive.
For LIN54 (lin-54 DREAM MuvB core complex component) #1 the deposit lists G2 robust z-score 11; active.
Against LIN54 (lin-54 DREAM MuvB core complex component) #2 the deposit lists G2 robust z-score 2.23; inactive.
For LIN54 (lin-54 DREAM MuvB core complex component) #3 the deposit lists G2 robust z-score -0.0925; inactive.

4 entries already listed, sorted by “G2 robust z-score”, lowest first.
ZNF180 (zinc finger protein 180) #2 | G2 robust z-score = -1.47; activity call = inactive
ZNF180 (zinc finger protein 180) #1 | G2 robust z-score = -0.97; activity call = inactive
BCL2L14 (BCL2 like 14) #3 | G2 robust z-score = -0.17; activity call = inactive
BCL2L14 (BCL2 like 14) #2 | G2 robust z-score = 0.33; activity call = inactive

Next reagents:
CAMP (cathelicidin antimicrobial peptide) #1 gave G2 robust z-score -0.573; inactive.
With knock-down of CAMP (cathelicidin antimicrobial peptide) #2, the record shows G2 robust z-score 0.565; inactive.
Knock-down of CAMP (cathelicidin antimicrobial peptide) #3 gave: G2 robust z-score 6.12; active.
Depletion of VEGFC (vascular endothelial growth factor C) #1 gave: G2 robust z-score 0.74; inactive.
VEGFC (vascular endothelial growth factor C) #2 gave G2 robust z-score 0.608; inactive.
Depletion of VEGFC (vascular endothelial growth factor C) #3 gave: G2 robust z-score -1.2; inactive.
Depletion of SYTL4 (synaptotagmin like 4) #1 gave: G2 robust z-score 0.144; inactive.
SYTL4 (synaptotagmin like 4) #2 gave G2 robust z-score 1.56; inactive.
With knock-down of SYTL4 (synaptotagmin like 4) #3 the results were G2 robust z-score 2.87; inactive.
Against CCR1 (C-C motif chemokine receptor 1) #1, the entry reads G2 robust z-score 1.67; inactive.
Depletion of CCR1 (C-C motif chemokine receptor 1) #2 gave: G2 robust z-score 0.355; inactive.
With knock-down of CCR1 (C-C motif chemokine receptor 1) #3, the screen gave G2 robust z-score 1.96; inactive.
For RGPD2 (RANBP2 like and GRIP domain containing 2) #1, the entry reads G2 robust z-score -0.275; inactive.
Knock-down of RGPD2 (RANBP2 like and GRIP domain containing 2) #2 came out at: G2 robust z-score 0.0673; inactive.
With knock-down of RGPD2 (RANBP2 like and GRIP domain containing 2) #3 the results were G2 robust z-score 5.1; active.
